Measured values: paper PMC4490448
Results are given in words; binding and its absence hold for the method and conditions named. Binding seen in cells or lysates may run through a third protein. Some binding calls cover weakened binding; strength is not graded here.

Target: T1, Squid (Drosophila (endogenous in larvae, Oregon-R-P2 wild type strain)) (UniProt Q08473)
T1 sequence: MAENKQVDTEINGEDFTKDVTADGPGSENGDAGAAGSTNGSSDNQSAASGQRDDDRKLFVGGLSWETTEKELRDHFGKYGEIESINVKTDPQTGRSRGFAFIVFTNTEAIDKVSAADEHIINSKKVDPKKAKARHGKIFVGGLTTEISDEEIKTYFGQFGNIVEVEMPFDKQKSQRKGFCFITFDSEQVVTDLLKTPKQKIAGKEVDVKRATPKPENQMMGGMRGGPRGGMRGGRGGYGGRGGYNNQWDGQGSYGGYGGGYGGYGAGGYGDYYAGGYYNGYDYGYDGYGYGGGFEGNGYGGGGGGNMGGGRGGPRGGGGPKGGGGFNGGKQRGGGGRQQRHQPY
Assay: co-IP; 100 ug of nuclear protein extract; anti-Squid antibody (1B11) on Dynabeads protein A, IgG anti-mouse as control; incubation over night; washes in 10 mM Hepes-KOH pH 8, 100 mM NaCl, 0.05 tween 20, 10% Glycerol; blot with anti-Squid and anti-Hrb87F

binding: binds
B1: Hrb87F (protein, UniProt P48810 1-385)
chain: MAEQNDSNGNYDDGEEITEPEQLRKLFIGGLDYRTTDDGLKAHFEKWGNIVDVVVMKDPKTKRSRGFGFITYSQSYMIDNAQNARPHKIDGRTVEPKRAVPRQEIDSPNAGATVKKLFVGGLRDDHDEECLREYFKDFGQIVSVNIVSDKDTGKKRGFAFIEFDDYDPVDKIILQKTHSIKNKTLDVKKAIAKQDMDRQGGGGGRGGPRAGGRGGQGDRGQGGGGWGGQNRQNGGGNWGGAGGGGGFGNSGGNFGGGQGGGSGGWNQQGGSGGGPWNNQGGGNGGWNGGGGGGYGGGNSNGSWGGNGGGGGGGGGFGNEYQQSYGGGPQRNSNFGNNRPAPYSQGGGGGGFNKGNQGGGQGFAGNNYNTGGGGQGGNMGGGNRRY
